# Measurements as given in patent US7892782B2 (priority 1998, dated 2011).
# At least one compound was matched to its structure with a doubt left.
# System: M. tuberculosis
# Format: cell-based, Mycobacterium tuberculosis
smiles,measurement,value
CO[C@H]1/C=C/O[C@@]2(C)Oc3c(C)c(O)c4c(O)c(c(/C=N/N5CCN(C)CC5)c(O)c4c3C2=O)NC(=O)/C(C)=C\C=C\[C@H](C)[C@H](O)[C@@H](C)[C@@H](O)[C@@H](C)[C@H](OC(C)=O)[C@@H]1C [rifampicin],susceptibility of rifampicin-resistant subpopulation after resumption of growth,becomes sensitive
